# Assay results: paper PMC6627698, “Redesigning Arenicin-1, an Antimicrobial Peptide from the Marine Polychaeta Arenicola marina, by Strand Rearrangement or Branching, Substitution of Specific Residues, and Backbone Linearization or Cyclization” (Marine Drugs, 2019)
# Marks after values point to notes of the source that are not given here. Residues, ends and D or L forms follow the SMILES beside them. *: point of attachment. Cam = NC(=O)C*
# How the values were obtained:
# Type in all cases: cell-based
# [1] = test system: set of Gram-negative and Gram-positive bacteria, including drug-resistant clinical isolates; conditions: ratio of G-MIC of native AR to G-MIC of the peptide; * = higher overall activity than AR
# Procedure: To obtain a global assessment of the effect on antimicrobial activity, the geometric mean of the MIC (G-MIC) was calculated, and from this, the overall improvement or impoverishment with respect to arenicin-1. In general, inverting the symmetry or decreasing the charge had detrimental effects.
# The overall activity against a set of tested bacterial strains was determined by way of the commonly used geometric mean of measured MIC values. […] At the same time, the geometric mean can still discriminate antimicrobial agents showing minor variations in activity; in other words, it has a better “resolution” than the median MIC (MIC50). Some mathematical basics for choosing the geometric mean for antimicrobial activity comparison are further discussed in the Supplementary Chapter S3.
# human red blood cells = conditions: for SI2 improvement ratio in comparison with AR: ratio of SI2 of the peptide to SI2 of native AR; for SI3 improvement ratio in comparison with AR: ratio of SI3 of the peptide to SI3 of native AR; for SI3 assessment HC15/G-MIC: selectivity index: HC15 / G-MIC; for SI2 assessment HC50/G-MIC: selectivity index: HC50 / G-MIC
# [2] = test system: human erythroleukemia K-562 cells; conditions: for SI1 improvement ratio in comparison with AR: ratio of SI1 of the peptide to SI1 of native AR; for SI1 assessment IC50/G-MIC: selectivity index: K-562 IC50 / G-MIC
# Procedure: The standard MTT ((3-(4,5-Dimethylthiazol-2-yl)-2,5-diphenyltetrazolium bromide) test was used for the examination of the cytotoxic activity of AMPs towards human erithroleukemia cells K-562. The cells were purchased from Biolot (Saint Petersburg, Russia) and were grown in RPMI 1640 medium (Biolot, Saint Petersburg, Russia) supplemented with glutamine and 10% FCS. Before the experiment, the culturing medium was replaced with serum-free RPMI 1640. Serial dilutions of the peptides in RPMI were plated in sterile 96-well microplates, and the target cells were dispensed to the microplates (10^5 cells/well in RPMI 1640). The plates were incubated for 24 h at 37 °C under 5% CO2. Cell-free media and cells incubated without peptides served as controls. Four hours before the incubation ended, MTT in PBS (5 mg/mL) was added to each well. After the incubation was stopped by adding isopropanol/ 0.04 M HCl, the optical density was measured at 540 nm, subtracting the background absorbance at 690 nm. Toxicity was determined by nonlinear regression analysis of the corresponding dose–response curves using the Sigma Plot 11 program to calculate the IC50 values (the concentration of the test substance that reduced the OD540 capacity by 50%).
Structure (SMILES),G-MIC improvement ratio in comparison with AR [1],SI2 improvement ratio in comparison with AR (human red blood cells),SI3 improvement ratio in comparison with AR (human red blood cells),SI3 assessment HC15/G-MIC (human red blood cells),SI2 assessment HC50/G-MIC (human red blood cells),SI1 improvement ratio in comparison with AR [2],SI1 assessment IC50/G-MIC [2]
"CC(C)C[C@@H]1NC(=O)[C@H](C(C)C)NC(=O)CNC(=O)[C@H](CCCNC(=N)N)NC(=O)[C@H](C(C)C)NC(=O)[C@H](CCCNC(=N)N)NC(=O)[C@H](C(C)C)NC(=O)[C@H](Cc2ccc(O)cc2)NC(=O)[C@H](C)NC(=O)[C@H](Cc2ccc(O)cc2)NC(=O)[C@H](C(C)C)NC(=O)[C@@H](NC(=O)[C@H](Cc2c[nH]c3ccccc23)NC(=O)[C@@H](N)CCCNC(=N)N)CSSC[C@@H](C(=O)N[C@@H](Cc2c[nH]c3ccccc23)C(=O)O)NC(=O)[C@H](CCCNC(=N)N)NC(=O)[C@H](CCCNC(=N)N)NC(=O)[C@H](Cc2ccc(O)cc2)NC(=O)[C@H](CCCNC(=N)N)NC(=O)[C@H](C(C)C)NC1=O [AR, Arenicin-1] (HELM PEPTIDE1{R.W.C.V.Y.A.Y.V.R.V.R.G.V.L.V.R.Y.R.R.C.W}$PEPTIDE1,PEPTIDE1,3:R3-20:R3$$$V2.0)",1.0,1.0,1.0,3.8,24.6,1.0,6.6
"CC(C)C[C@@H]1NC(=O)[C@H](C(C)C)NC(=O)CNC(=O)[C@H](CCCNC(=N)N)NC(=O)[C@H](C(C)C)NC(=O)[C@H](CCCNC(=N)N)NC(=O)[C@H](C(C)C)NC(=O)[C@H](Cc2ccc(O)cc2)NC(=O)[C@H](C)NC(=O)[C@H](Cc2ccc(O)cc2)NC(=O)[C@H](C(C)C)NC(=O)[C@@H](NC(=O)[C@H](Cc2ccccc2)NC(=O)[C@@H](N)CCCNC(=N)N)CSSC[C@@H](C(=O)N[C@@H](Cc2ccccc2)C(=O)O)NC(=O)[C@H](CCCNC(=N)N)NC(=O)[C@H](CCCNC(=N)N)NC(=O)[C@H](Cc2ccc(O)cc2)NC(=O)[C@H](CCCNC(=N)N)NC(=O)[C@H](C(C)C)NC1=O [AR-F] (HELM PEPTIDE1{R.F.C.V.Y.A.Y.V.R.V.R.G.V.L.V.R.Y.R.R.C.F}$PEPTIDE1,PEPTIDE1,3:R3-20:R3$$$V2.0; N-terminus and C-terminus assumed)",1.5 *,1.4,1.6,6.0,34.0,0.8,5.2
"CC(C)C[C@@H]1NC(=O)[C@H](C(C)C)NC(=O)CNC(=O)[C@H](CCCCN)NC(=O)[C@H](C(C)C)NC(=O)[C@H](CCCCN)NC(=O)[C@H](C(C)C)NC(=O)[C@H](Cc2ccc(O)cc2)NC(=O)[C@H](C)NC(=O)[C@H](Cc2ccc(O)cc2)NC(=O)[C@H](C(C)C)NC(=O)[C@@H](NC(=O)[C@H](Cc2c[nH]c3ccccc23)NC(=O)[C@@H](N)CCCCN)CSSC[C@@H](C(=O)N[C@@H](Cc2c[nH]c3ccccc23)C(=O)O)NC(=O)[C@H](CCCCN)NC(=O)[C@H](CCCCN)NC(=O)[C@H](Cc2ccc(O)cc2)NC(=O)[C@H](CCCCN)NC(=O)[C@H](C(C)C)NC1=O [AR-K] (HELM PEPTIDE1{K.W.C.V.Y.A.Y.V.K.V.K.G.V.L.V.K.Y.K.K.C.W}$PEPTIDE1,PEPTIDE1,3:R3-20:R3$$$V2.0; N-terminus assumed)",1.4 *,1.3,1.4,5.3,33.1,0.6,4.0
"CC(C)C[C@@H]1NC(=O)[C@H](C(C)C)NC(=O)CNC(=O)[C@H](CCCNC(=N)N)NC(=O)[C@H](C(C)C)NC(=O)[C@H](CCCNC(=N)N)NC(=O)[C@H](C(C)C)NC(=O)[C@H](Cc2ccc(O)cc2)NC(=O)[C@H](C)NC(=O)[C@H](Cc2ccc(O)cc2)NC(=O)[C@H](C(C)C)NC(=O)[C@@H]2CSSC[C@H](NC(=O)[C@H](CCCNC(=N)N)NC(=O)[C@H](CCCNC(=N)N)NC(=O)[C@H](Cc3ccc(O)cc3)NC(=O)[C@H](CCCNC(=N)N)NC(=O)[C@H](C(C)C)NC1=O)C(=O)N[C@@H](Cc1c[nH]c3ccccc13)C(=O)N[C@@H](CCCNC(=N)N)C(=O)N[C@@H](Cc1c[nH]c3ccccc13)C(=O)N2 [ARcycl] (HELM PEPTIDE1{R.W.C.V.Y.A.Y.V.R.V.R.G.V.L.V.R.Y.R.R.C.W}$PEPTIDE1,PEPTIDE1,3:R3-20:R3|PEPTIDE1,PEPTIDE1,1:R1-21:R2$$$V2.0)",1.2 *,1.1,1.6,–,–,1.1,–
"CC(C)C[C@@H]1NC(=O)[C@H](C(C)C)NC(=O)CNC(=O)[C@H](CCCNC(=N)N)NC(=O)[C@H](C(C)C)NC(=O)[C@H](CCCNC(=N)N)NC(=O)[C@H](C(C)C)NC(=O)[C@H](CCCNC(=N)N)NC(=O)[C@H](Cc2ccc(O)cc2)NC(=O)[C@H](CCCNC(=N)N)NC(=O)[C@H](CCCNC(=N)N)NC(=O)[C@@H](NC(=O)[C@H](Cc2c[nH]c3ccccc23)NC(=O)[C@@H](N)CCCNC(=N)N)CSSC[C@@H](C(=O)N[C@@H](Cc2c[nH]c3ccccc23)C(=O)O)NC(=O)[C@H](C(C)C)NC(=O)[C@H](Cc2ccc(O)cc2)NC(=O)[C@H](C)NC(=O)[C@H](Cc2ccc(O)cc2)NC(=O)[C@H](C(C)C)NC1=O [ARin-s] (HELM PEPTIDE1{R.W.C.R.R.Y.R.V.R.V.R.G.V.L.V.Y.A.Y.V.C.W}$PEPTIDE1,PEPTIDE1,3:R3-20:R3$$$V2.0; N-terminus assumed)",≤0.2,–,≤0.4,≤1.3,–,≤0.4,≤2.9
CC(C)C[C@H](NC(=O)[C@@H](NC(=O)CNC(=O)[C@H](CCCNC(=N)N)NC(=O)[C@@H](NC(=O)[C@H](CCCNC(=N)N)NC(=O)[C@@H](NC(=O)[C@H](Cc1ccc(O)cc1)NC(=O)[C@H](C)NC(=O)[C@H](Cc1ccc(O)cc1)NC(=O)[C@@H](NC(=O)[C@H](CSCC(N)=O)NC(=O)[C@H](Cc1c[nH]c2ccccc12)NC(=O)[C@@H](N)CCCNC(=N)N)C(C)C)C(C)C)C(C)C)C(C)C)C(=O)N[C@H](C(=O)N[C@@H](CCCNC(=N)N)C(=O)N[C@@H](Cc1ccc(O)cc1)C(=O)N[C@@H](CCCNC(=N)N)C(=O)N[C@@H](CCCNC(=N)N)C(=O)N[C@@H](CSCC(N)=O)C(=O)N[C@@H](Cc1c[nH]c2ccccc12)C(=O)O)C(C)C [ARlin] (H-RWC(Cam)VYAYVRVRGVLVRYRRC(Cam)W-OH; N-terminus assumed),0.9,>1.0,2.5 *,9.5,>25.6,>1.9 *,>12.8
"CC(C)C[C@@H]1NC(=O)[C@H](C(C)C)NC(=O)[C@H](CCCNC(=N)N)NC(=O)[C@H](Cc2ccc(O)cc2)NC(=O)[C@H](CCCNC(=N)N)NC(=O)[C@H](CCCNC(=N)N)NC(=O)[C@@H](NC(=O)[C@@H](N)Cc2c[nH]c3ccccc23)CSSC[C@H](NC(=O)[C@@H](N)Cc2c[nH]c3ccccc23)C(=O)N[C@@H](CCCNC(=N)N)C(=O)N[C@@H](CCCNC(=N)N)C(=O)N[C@@H](Cc2ccc(O)cc2)C(=O)N[C@@H](CCCNC(=N)N)C(=O)N[C@@H](C(C)C)C(=O)N[C@@H](CC(C)C)C(=O)N[C@@H](C(C)C)C(=O)N[C@H](C(=O)N[C@@H](CN)C(N)=O)CCCNC(=O)[C@H](C(C)C)NC1=O [ARs-C-B] (HELM PEPTIDE1{W.C.R.R.Y.R.V.L.V.[Orn].[NC[C@H](N[*:1])C(=O)[*:2]].[am]}|PEPTIDE2{W.C.R.R.Y.R.V.L.V}$PEPTIDE1,PEPTIDE2,2:R3-2:R3|PEPTIDE1,PEPTIDE2,10:R3-9:R2$$$V2.0; N-terminus assumed)",0.6,>0.7,3.3 *,12.7,>18.1,1.3 *,8.8
